Drawing on PMC12700999, this text covers binding for 1 substance.

By UniProt entry, the sequences of proteins in these tests, tags left out. Residues count along the entry.
UniProt P02545, residues 1-646: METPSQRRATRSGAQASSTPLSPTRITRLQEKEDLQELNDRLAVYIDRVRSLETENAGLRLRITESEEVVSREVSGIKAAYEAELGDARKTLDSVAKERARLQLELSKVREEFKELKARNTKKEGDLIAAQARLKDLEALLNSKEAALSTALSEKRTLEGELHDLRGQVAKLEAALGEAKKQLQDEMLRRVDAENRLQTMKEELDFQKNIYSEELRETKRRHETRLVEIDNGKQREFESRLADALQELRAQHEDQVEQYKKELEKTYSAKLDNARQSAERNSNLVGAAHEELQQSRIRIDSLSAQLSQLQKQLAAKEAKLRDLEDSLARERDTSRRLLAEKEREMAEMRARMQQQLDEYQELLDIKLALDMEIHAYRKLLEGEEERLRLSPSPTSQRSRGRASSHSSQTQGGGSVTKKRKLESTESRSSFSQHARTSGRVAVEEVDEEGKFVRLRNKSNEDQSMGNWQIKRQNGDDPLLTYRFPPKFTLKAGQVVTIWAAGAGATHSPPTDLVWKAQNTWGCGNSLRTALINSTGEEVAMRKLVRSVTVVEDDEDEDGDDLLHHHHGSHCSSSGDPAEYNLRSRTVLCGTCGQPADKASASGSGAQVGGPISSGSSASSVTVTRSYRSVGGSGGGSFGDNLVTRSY
UniProt P35222: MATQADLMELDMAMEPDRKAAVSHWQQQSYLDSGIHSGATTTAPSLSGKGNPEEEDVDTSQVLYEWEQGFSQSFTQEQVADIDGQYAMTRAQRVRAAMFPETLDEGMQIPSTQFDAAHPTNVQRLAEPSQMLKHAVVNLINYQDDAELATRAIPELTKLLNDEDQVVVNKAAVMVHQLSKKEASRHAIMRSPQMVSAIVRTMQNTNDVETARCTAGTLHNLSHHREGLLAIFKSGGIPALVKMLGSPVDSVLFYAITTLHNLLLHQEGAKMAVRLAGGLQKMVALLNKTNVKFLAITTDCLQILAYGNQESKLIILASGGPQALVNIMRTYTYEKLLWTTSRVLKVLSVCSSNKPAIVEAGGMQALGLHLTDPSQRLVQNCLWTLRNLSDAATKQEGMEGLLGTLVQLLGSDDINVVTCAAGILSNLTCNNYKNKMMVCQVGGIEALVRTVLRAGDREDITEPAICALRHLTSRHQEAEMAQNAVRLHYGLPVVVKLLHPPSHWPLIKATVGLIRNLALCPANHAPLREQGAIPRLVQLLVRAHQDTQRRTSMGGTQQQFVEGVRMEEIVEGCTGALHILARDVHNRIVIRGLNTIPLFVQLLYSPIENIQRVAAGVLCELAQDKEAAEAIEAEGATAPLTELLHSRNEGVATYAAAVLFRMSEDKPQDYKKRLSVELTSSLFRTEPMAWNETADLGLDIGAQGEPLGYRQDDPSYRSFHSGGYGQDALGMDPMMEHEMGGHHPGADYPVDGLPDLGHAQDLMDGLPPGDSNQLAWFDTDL

This assay deals with Lamin A/C (human (endogenous in T24)) (UniProt P02545). As to the kind of experiment: co-IP; lysates of T24 cells cultured on 5 kPa and 30 kPa polyacrylamide gels, with or without Lamin A/C depletion (shLMNA) on 30 kPa; anti-Lamin A/C antibody overnight at 4 °C, protein G agarose beads 2 h at 4 °C, washed twice with lysis buffer; immunoblot with anti-β-catenin antibody. (A western blot detects proteins with antibodies after separation by electrophoresis.)

These are yes or no findings as the source states them, for the method shown. In cells and extracts the contact can be indirect. Some entries that bind do so weakly or less than the wild type.

Regarding β-catenin (from UniProt P35222 1-781), the binding entry is recorded as “binds”.
